This note sets out measurements from PubChem BioAssay AID286 (DTP/NCI, 2004).

In this assay the test system is BDF1 mice, M5076 sarcoma ip, median survival T/C. Nature of the assay: NCI In Vivo Anticancer Drug Screen. Data for tumor model Sarcoma M5076 (intraperitoneal) in B6D2F1 (BDF1) mice. The note with it: T/C endpoint: median survival time, higher T/C = longer survival. The protocol:
The antitumor activity of compounds was measured in mice bearing transplantable tumors. Survival or tumor size were measured and the results are expressed as the measurement made in the treated group (T) divided by the measurement made in the vehicle treated control group (C). The tumor model used in this assay is Sarcoma M5076 (intraperitoneal) in B6D2F1 (BDF1) mice

The mark [1] stands for this setting: dose: 100.0 mg/kg/injection, schedule: Q04DX005 (ip), vehicle: saline.
Where [2] appears, read: dose: 200.0 mg/kg/injection, schedule: Q04DX004 (ip), vehicle: saline.
The mark [3] stands for this setting: dose: 200.0 mg/kg/injection, schedule: Q04DX005 (ip), vehicle: saline.
Where [4] appears, read: dose: 400.0 mg/kg/injection, schedule: Q04DX004 (ip), vehicle: saline.
The mark [5] stands for this setting: dose: 400.0 mg/kg/injection, schedule: Q04DX005 (ip), vehicle: saline.
Where [6] appears, read: dose: 800.0 mg/kg/injection, schedule: Q04DX004 (ip), vehicle: saline.
Setting [7] is: dose: 800.0 mg/kg/injection, schedule: Q04DX005 (ip), vehicle: saline.
The mark [8] stands for this setting: dose: 10.0 mg/kg/injection, schedule: Q01DX009 (ip), vehicle: Klucel (hydroxypropylcellulose) (HPC).
The mark [9] stands for this setting: dose: 400.0 mg/kg/injection, schedule: Q04DX005 (ip), vehicle: saline with Tween-80.
Setting [10] is: dose: 800.0 mg/kg/injection, schedule: Q04DX004 (ip), vehicle: saline with Tween-80.
Setting [11] is: dose: 800.0 mg/kg/injection, schedule: Q04DX005 (ip), vehicle: saline with Tween-80.

The list does not hold the whole screen: it gathers tests that were run many times, whatever their T/C, doses with no T/C, and many T/C values between a quarter and a half above the control. Further doses and runs are listed elsewhere. T/C: endpoint of the treated group in % of that of the vehicle group. Some entries give survivors of the animals treated and no T/C: the source files T/C as zero there, which appears to mark a toxic dose or a test without result, not a measured value. Some doses without a T/C left all or most animals alive at the check, yet need not have been tolerated: the source hardly ever lists a survival T/C far under the control, and the zero likely stands for such cases as well. Counts of survivors are from the toxicity check (mostly the fifth day) where no day follows; animals may have died later. Schedules are NCI's codes, read here as Q, the interval in days (D) or hours (H), X, the number of doses. Some entries hold several experiments; the values are given in rising order. Some molecules as drawn cover several salts, stereoisomers or complexes of the source; a dose is that of the sample tested. Where survival is the endpoint, this PubChem deposit counts one and a half times the control or more as active, and values a quarter to a half above the control carry no call in these data; other NCI protocols may use other cut-offs. Brackets with × give the number of equal values in this list. Some T/C values are followed by the survivors on the day toxicity was checked, most often the fifth; without a count, all were alive then.

Regarding `c1cc2n(n1)CCN2`, the T/C reads like this: (dose: 100.0 mg/kg/injection, schedule: Q04DX004 (ip), vehicle: saline) 90, 98, 104, 105, 110 % of control; under setting [1], 93, 96, 106, 108, 114 % of control; under setting [2], 96, 104, 105, 106 % of control (2×); under setting [3], 90, 103, 104, 109, 116 % of control; under setting [4], 99, 103, 112, 113 % of control (2×); under setting [5], 93, 109, 110, 114, 116 % of control [9 of 10 alive on day 9]. Further, the T/C under setting [6] was 104, 113 [9 of 10 alive on day 9], 124 % of control [7 of 10 alive on day 9]; the T/C under setting [7] is 114 and 124 % of control. Also, the survivor count is, setting by setting: under setting [6], 1 of 10 on day 9; under setting [7], 0 of 10 on day 9, 2 of 10 on day 9, 5 of 10 on day 9.

Take `COc1cc2cc3c(c(O)c2c(O)c1/C=C/C(C)C)C(=O)CC(C)(OC(C)=O)C3` (centres undefined): the T/C runs as follows: (dose: 2.5 mg/kg/injection, schedule: Q01DX009 (ip), vehicle: Klucel (hydroxypropylcellulose) (HPC)) 135 [9 of 10 alive on day 9] and 140 % of control; (dose: 5.0 mg/kg/injection, schedule: Q01DX009 (ip), vehicle: Klucel (hydroxypropylcellulose) (HPC)) 145 % of control (2×). The survivor count under setting [8] is on record as 10 of 10 on day 9.

`COc1cc2c(cc1OC)[C@@H]1C(=O)c3ccc4c(c3O[C@@H]1CO2)C[C@H](C(C)C)O4`: the T/C (dose: 3.12 mg/kg/injection, schedule: Q01DX009 (ip), vehicle: Klucel (hydroxypropylcellulose) (HPC)) was 127 % of control and the T/C (dose: 6.25 mg/kg/injection, schedule: Q01DX009 (ip), vehicle: Klucel (hydroxypropylcellulose) (HPC)) is 125 % of control. Further, the survivor count reads like this: (dose: 12.5 mg/kg/injection, schedule: Q01DX009 (ip), vehicle: Klucel (hydroxypropylcellulose) (HPC)) 1 of 10 on day 9; (dose: 25.0 mg/kg/injection, schedule: Q01DX009 (ip), vehicle: Klucel (hydroxypropylcellulose) (HPC)) 0 of 10 on day 9 and 2 of 10 on day 9.

Regarding `CC(CN1CC(=O)NC(=O)C1)N1CC(=O)NC(=O)C1` (centres undefined), the T/C (dose: 100.0 mg/kg/injection, schedule: Q04DX004 (ip), vehicle: saline with Tween-80) is given as 106, 107, 112, 121 % of control; the T/C (dose: 100.0 mg/kg/injection, schedule: Q04DX005 (ip), vehicle: saline with Tween-80) was 106, 110, 121 % of control (2×); the T/C (dose: 200.0 mg/kg/injection, schedule: Q04DX004 (ip), vehicle: saline with Tween-80) is 109, 112, 114, 118 % of control; the T/C (dose: 200.0 mg/kg/injection, schedule: Q04DX005 (ip), vehicle: saline with Tween-80) is given as 111, 113, 130, 134 % of control; the T/C (dose: 400.0 mg/kg/injection, schedule: Q04DX004 (ip), vehicle: saline with Tween-80) is 112, 120 [9 of 10 alive on day 9], 126 [9 of 10 alive on day 9], 131 % of control [9 of 10 alive on day 9]; the T/C under setting [9] is 111, 124, 125, 131 % of control. For the same compound, the T/C is, setting by setting: under setting [10], 114 [9 of 10 alive on day 9] and 138 % of control [9 of 10 alive on day 9]; under setting [11], 120, 120 [8 of 9 alive on day 9], 150 % of control [8 of 10 alive on day 9]. Also, the survivor count runs as follows: under setting [10], 7 of 10 on day 9 and 8 of 10 on day 9; under setting [11], 8 of 10 on day 9.

Take `O=C(NC(Cc1ccc(I)cc1)C(=O)O)c1cccc(Br)c1` (centres undefined): the survivor count (dose: 800.0 mg/kg/injection, schedule: Q04DX004 (ip), vehicle: Klucel (hydroxypropylcellulose) (HPC)) was 2 of 10 on day 14.

Regarding `Nc1nncs1`, the T/C by setting is: under setting [1], 126 and 136 % of control; under setting [2], 127 % of control; under setting [3], 134 % of control; under setting [4], 137 and 137 % of control [9 of 10 alive on day 9]; under setting [9], 127 % of control; under setting [5], 139 and 143 % of control. For the same compound, the T/C by setting is: under setting [6], 139 and 147 % of control; under setting [11], 139 % of control; under setting [7], 133 % of control. Besides, under setting [7], the survivor count is reported as 9 of 10 on day 9.

Consider `C=C1C(=O)OC2C(OC(C)=O)C1C(OC(=O)C(C)CC)[C@]1(C)C(=O)C=C[C@H]1[C@@H]2C` (some centres undefined), for which the survivor count (dose: 20.0 mg/kg/injection, schedule: Q01DX009 (ip), vehicle: Klucel (hydroxypropylcellulose) (HPC)) is recorded as 3 of 10 on day 9.

In the case of `C=C1C(O)C2OC3(CCC(/C=C/C(C)C4CC5(C)SC5C5(OC(CC(C)(O)C(=O)O)CCC5O)O4)O3)CCC2OC1C(O)CC(C)C1OC2(CCCCO2)CCC1C` (centres undefined), the T/C by setting is: (dose: 4.0 micrograms/kg/injection, schedule: Q01DX009 (ip), vehicle: saline + alcohol) 128 % of control; (dose: 8.0 micrograms/kg/injection, schedule: Q01DX009 (ip), vehicle: saline + alcohol) 140 % of control. The survivor count (dose: 5.0 micrograms/kg/injection, schedule: Q01DX009 (ip), vehicle: saline + alcohol) is on record as 0 of 10 on day 9; the survivor count (dose: 10.0 micrograms/kg/injection, schedule: Q01DX009 (ip), vehicle: saline + alcohol) is given as 0 of 10 on day 9; the survivor count (dose: 20.0 micrograms/kg/injection, schedule: Q01DX009 (ip), vehicle: saline + alcohol) is 0 of 10 on day 9; the survivor count (dose: 40.0 micrograms/kg/injection, schedule: Q01DX009 (ip), vehicle: saline + alcohol) is given as 0 of 10 on day 9.

Regarding `OC(CBr)C(O)C(O)C(O)CBr` (centres undefined), the T/C is 133 % of control (dose: 180.0 mg/kg/injection, schedule: Q04DX005 (ip), vehicle: saline with Tween-80) and 143 % of control [9 of 10 alive on day 17] (dose: 300.0 mg/kg/injection, schedule: Q04DX005 (ip), vehicle: saline with Tween-80).

Take `COC(=O)NC1C(C)OC(OC2C/C=C(/C)C3C=CC4C(OC5CC(OC6CCC(OC7CC(O)C(OC8CCC(O)C(C)O8)C(C)O7)C(C)O6)C(OC(C)=O)C(C)O5)C(C)CC(C)C4C3(C)/C(O)=C3/C(=O)OC4(CC(C=O)=CC(O)C4/C=C\2C)C3=O)CC1(C)[N+](=O)[O-]` (centres undefined): the survivor count (dose: 20.0 mg/kg/injection, schedule: Q04DX004 (ip), vehicle: water) was 7 of 10 on day 14 and the survivor count (dose: 40.0 mg/kg/injection, schedule: Q04DX004 (ip), vehicle: water) is listed as 0 of 10 on day 14.

As to `CC(=O)OCc1cc(=O)n(C)c2c3c4c(cc12)c(C)cc(=O)n4CO3`, the T/C is, setting by setting: under setting [8], 141 % of control; (dose: 40.0 mg/kg/injection, schedule: Q04DX005 (ip), vehicle: Klucel (hydroxypropylcellulose) (HPC)) 127 % of control. For the same compound, the survivor count (dose: 80.0 mg/kg/injection, schedule: Q01DX009 (ip), vehicle: Klucel (hydroxypropylcellulose) (HPC)) is 0 of 10 on day 9; the survivor count (dose: 160.0 mg/kg/injection, schedule: Q01DX009 (ip), vehicle: Klucel (hydroxypropylcellulose) (HPC)) is recorded as 0 of 10 on day 9; the survivor count (dose: 160.0 mg/kg/injection, schedule: Q04DX005 (ip), vehicle: Klucel (hydroxypropylcellulose) (HPC)) is on record as 10 of 10 on day 9; the survivor count (dose: 320.0 mg/kg/injection, schedule: Q04DX005 (ip), vehicle: Klucel (hydroxypropylcellulose) (HPC)) was 10 of 10 on day 9.

With `O=C1c2c(O)ccc(O)c2C(=O)c2c(NCCNCCO)ccc(NCCNCCO)c21`, the survivor count is listed as 2 of 8 on day 17 (dose: 4.0 mg/kg/injection, schedule: Q04DX005 (ip), vehicle: saline); 8 of 8 on day 9 (dose: 8.0 mg/kg/injection, schedule: Q04DX004 (ip), vehicle: water); 0 of 8 on day 17 (dose: 8.0 mg/kg/injection, schedule: Q04DX005 (ip), vehicle: saline).

Turning to `CCOC(=O)C(N)CSC(=O)NC` (centres undefined), where the note is “dose: 1200.0 mg/kg/injection, schedule: Q04DX004 (ip), vehicle: saline”, the survivor count is given as 0 of 10 on day 14.
